From PubChem BioAssay AID2013 (Sanford-Burnham Center for Chemical Genomics, 2009)
About 370 (0.13%) of roughly 290,000 compounds were called active. Inconclusive results, whose numbers are uncertain, are shown with a selection of clear calls.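 The calls were made as follows: active = spots per cell inhibited over 60%, with over 100 cells counted and total cytoplasm intensity under 500,000; inconclusive = wells with under 100 cells, flagged as likely toxic; inactive = the rest.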

Chains of the proteins cited; added tags and fusions are not shown. Lines headed by an entry give the natural chain unless they say otherwise; changes in a name come on top.
UniProt Q9Y2T6: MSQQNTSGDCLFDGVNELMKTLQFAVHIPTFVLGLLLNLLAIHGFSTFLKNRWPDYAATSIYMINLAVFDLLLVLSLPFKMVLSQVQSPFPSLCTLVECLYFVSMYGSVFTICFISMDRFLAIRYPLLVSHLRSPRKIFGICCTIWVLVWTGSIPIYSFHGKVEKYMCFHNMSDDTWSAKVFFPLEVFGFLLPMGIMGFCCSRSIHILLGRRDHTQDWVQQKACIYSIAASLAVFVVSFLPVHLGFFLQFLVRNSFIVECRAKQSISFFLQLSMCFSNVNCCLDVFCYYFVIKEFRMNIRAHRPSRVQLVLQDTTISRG

molecular target: G-protein coupled receptor 55 (Homo sapiens) (UniProt Q9Y2T6); test: inhibition of LPI-stimulated GPR55 beta-arrestin translocation – imaging, U2OS, beta-arrestin-GFP, LPI agonist, primary screen (AID 2013); details: LPI antagonism, at 10 µM, hits give high values;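 also: U2OS cells stably carrying GPR55 and arrestin-GFP stimulated by 5 µM LPI near EC80; imaged beta-arrestin-GFP aggregate spots per cell after agonist stimulation; plate controls were LPI-stimulated DMSO wells for no effect and DMSO wells without LPI for full effect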

| Structure (SMILES) | inhibition |
| --- | --- |
| Cc1ccc(C(C)C)cc1S(=O)(=O)NCc1ccccn1 | inactive: 8.4% |
| CCCNC(=O)NC(=O)CSc1nncs1 | inactive: 1.8% |
| O=C(/C=C/c1ccc(N2CCC(c3ccccc3)=N2)cc1)c1ccccc1 | inconclusive: 85.4% |
| Cc1c(-c2ccc(O)cc2)nc2nc(-c3ccccc3)c(-c3ccccc3)nn12 | inconclusive: 101% |
| O=C(NCc1ccccc1Cl)c1ccc2c(c1)SC1=NS(=O)(=O)CCN12 | inactive: -9.3% |
| CCCCNC(=O)C(Sc1ccccc1)c1ccccc1 (stereo not given) | inactive: -9.3% |
| Cc1cc(/C=C2\Sc3ccccc3N2C)cc(C)[n+]1CC1CCCO1 (stereo not given) | inconclusive: 96.3% |
| COc1ccc(-c2cc(C(=O)Nc3ccc(C(N)=O)cc3)c3ccccc3n2)cc1 | inconclusive: 38.8% |
| Cc1ccc(CSCCNC(=O)c2ccc(N(C)S(=O)(=O)c3ccccc3)cc2)cc1 | inactive: 4.4% |
| O=C(CCn1ccnc1)Nc1cc(Cl)ccc1O | inactive: 4.7% |
| CN(C)c1ccc(/C=C/C(=O)c2cccc(Br)c2)cc1 | inconclusive: 102% |
| CNC[C@@H](CC1CCCCC1)NC[C@H](CC(C)C)NCCc1cccc(C(F)(F)F)c1 | inconclusive: 72.7% |
| COc1cc(CNCCO)cc(Cl)c1OCc1ccccc1Cl | inactive: 14.7% |
| O=C(OCC(=O)N1CCN(c2ccccc2)CC1)c1ccc2ncsc2c1 | inconclusive: 103% |
| CCOc1ccccc1C(=O)NCC(=O)NCCCSc1ccccc1 | inconclusive: 63% |
| Cc1ccc2c(c1)c(/C=C/c1cc[n+](C)cc1)c(C)n2C | inconclusive: 98.1% |
| O=C(NCc1ccccc1)C(c1ccco1)N(C(=O)c1csnn1)c1ccccc1F (stereo not given) | inconclusive: 76.7% |
| O=C(NCCN1CCc2ccccc2C1)C1CC(=O)N(C2CCCC2)C1 (stereo not given) | inconclusive: 103% |
| CCCCNc1ccc2c3c(cccc13)C(=O)N(CCCC)C2=O | inconclusive: 102% |
| COc1cc(/C=C2\C(=O)N(c3ccc(NC(C)=O)cc3)N=C2c2ccccc2)ccc1O | active: 89.7% |

Taken from the results shown, 2 compounds:

| Structure (SMILES) | inhibition |
| --- | --- |
| Cc1ccc(CSCCNC(=O)c2ccc(N(C)S(=O)(=O)c3ccccc3)cc2)cc1 | inactive: 4.4% |
| O=C(CCn1ccnc1)Nc1cc(Cl)ccc1O | inactive: 4.7% |
